Assay results: article doi:10.1101/2021.08.25.457662
Substitutions are numbered along the chain they refer to. Names may count otherwise. Like-named read-outs stand apart in the source and are kept apart here. These are yes or no findings as the source states them, for the method shown. For some of these results: Binding seen in cells or lysates may run through a third protein. Some entries that bind do so weakly or less than the wild type. For some of these results: Sequences can lack the tags named with a protein. Each block holds one binder with its values, some of them ahead of it.

What was measured:
[1] = biological target: endogenous Gsdmd-N (mouse (endogenous in BMDMs)) (UniProt Q9D8T2); assay: native gel or EMSA
[2] = biological target: endogenous Gsdmd-N (mouse (endogenous in BMDMs)) (UniProt Q9D8T2); assay: native gel or EMSA; remark: listed apart in the source
[3] = biological target: T1, caspase-11 (co-IP of Fig. 1F) (mouse) (UniProt P70343); assay: co-IP
T1 sequence: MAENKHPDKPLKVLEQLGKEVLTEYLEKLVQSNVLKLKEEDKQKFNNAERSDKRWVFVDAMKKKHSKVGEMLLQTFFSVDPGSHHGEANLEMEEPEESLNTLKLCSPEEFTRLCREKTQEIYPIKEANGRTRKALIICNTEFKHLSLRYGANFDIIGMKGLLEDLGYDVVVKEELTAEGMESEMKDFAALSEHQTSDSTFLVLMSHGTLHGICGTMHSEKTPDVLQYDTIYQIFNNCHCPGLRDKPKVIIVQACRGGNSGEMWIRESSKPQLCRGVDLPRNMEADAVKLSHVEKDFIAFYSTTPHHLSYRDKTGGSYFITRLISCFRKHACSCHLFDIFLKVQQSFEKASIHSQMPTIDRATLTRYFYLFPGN

[4] = biological target: T2, recombinant Flag-caspase-11 (mouse) (UniProt P70343); assay: co-IP
T2 sequence: T1 sequence

Gsdmd-N-GFP (mouse) [5] = biological target: T3, Gsdmd-N-GFP (mouse) (UniProt Q9D8T2); assay: co-IP
T3 sequence: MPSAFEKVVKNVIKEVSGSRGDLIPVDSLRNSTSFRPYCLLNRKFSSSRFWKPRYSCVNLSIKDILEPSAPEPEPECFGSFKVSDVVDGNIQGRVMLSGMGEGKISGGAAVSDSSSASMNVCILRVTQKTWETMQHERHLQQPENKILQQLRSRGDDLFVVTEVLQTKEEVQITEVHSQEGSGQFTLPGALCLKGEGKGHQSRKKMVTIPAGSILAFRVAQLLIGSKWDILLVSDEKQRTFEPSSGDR

Gsdmd-N-GFP (mouse) [6] = biological target: T3, Gsdmd-N-GFP (mouse); assay: co-IP; remark: listed apart in the source
HA-Gsdmd C-term (mouse) = biological target: T4, HA-Gsdmd C-term (mouse) (UniProt Q9D8T2); assay: co-IP
T4 sequence: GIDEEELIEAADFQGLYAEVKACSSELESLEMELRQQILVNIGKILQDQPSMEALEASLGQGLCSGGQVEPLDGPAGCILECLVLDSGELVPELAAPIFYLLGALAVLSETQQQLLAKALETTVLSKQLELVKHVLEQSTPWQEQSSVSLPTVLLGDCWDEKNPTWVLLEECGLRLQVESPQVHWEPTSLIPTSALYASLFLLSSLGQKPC

Gsdmd-N-GFP (mouse) [7] = biological target: T3, Gsdmd-N-GFP (mouse); assay: non-reducing PAGE and immunoblot

binding [1]: binds
binding [2]: no binding (condition: Gbp3^-/^- BMDMs)
B1: endogenous Gsdmd-N (domain or fragment, UniProt Q9D8T2 1-276)
chain: MPSAFEKVVKNVIKEVSGSRGDLIPVDSLRNSTSFRPYCLLNRKFSSSRFWKPRYSCVNLSIKDILEPSAPEPEPECFGSFKVSDVVDGNIQGRVMLSGMGEGKISGGAAVSDSSSASMNVCILRVTQKTWETMQHERHLQQPENKILQQLRSRGDDLFVVTEVLQTKEEVQITEVHSQEGSGQFTLPGALCLKGEGKGHQSRKKMVTIPAGSILAFRVAQLLIGSKWDILLVSDEKQRTFEPSSGDRKAVGQRHHGLNVLAALCSIGKQLSLLSD

binding [3]: no binding
B2: Gbp1 (co-IP of Fig. 1F) (protein, UniProt Q01514 1-589)
chain: MASEIHMSEPMCLIENTEAQLVINQEALRILSAITQPVVVVAIVGLYRTGKSYLMNKLAGKRTGFSLGSTVQSHTKGIWMWCVPHPKKAGQTLVLLDTEGLEDVEKGDNQNDCWIFALAVLLSSTFIYNSIGTINQQAMDQLHYVTELTDLIKSKSSPDQSDVDNSANFVGFFPIFVWTLRDFSLDLEFDGESITPDEYLETSLALRKGTDENTKKFNMPRLCIRKFFPKRKCFIFDRPGDRKQLSKLEWIQEDQLNKEFVEQVAEFTSYIFSYSGVKTLSGGITVNGPRLKSLVQTYVSAICSGELPCMENAVLTLAQIENSAAVQKAITYYEEQMNQKIHMPTETLQELLDLHRTCEREAIEVFMKNSFKDVDQKFQEELGAQLEAKRDAFVKKNMDMSSAHCSDLLEGLFAHLEEEVKQGTFYKPGGYYLFLQRKQELEKKYIQTPGKGLQAEVMLRKYFESKEDLADTLLKMDQSLTEKEKQIEMERIKAEAAEAANRALAEMQKKHEMLMEQKEQSYQEHMKQLTEKMEQERKELMAEQQRIISLKLQEQERLLKQGFQNESLQLRQEIEKIKNMPPPRSCTIL

binding [3]: binds
B3: Gbp2 (co-IP of Fig. 1F) (protein, UniProt Q9Z0E6 1-589)
chain: MASEIHMSEPMCLIENTEAQLVINQEALRILSAITQPVVVVAIVGLYRTGKSYLMNKLAGKRTGFSLGSTVQSHTKGIWMWCVPHPKKAGQTLVLLDTEGLEDVEKGDNQNDCWIFALAVLLSSTFIYNSIGTINQQAMDQLHYVTELTDLIKSKSSPDQSGVDDSANFVGFFPTFVWTLRDFSLELEVNGKPVTSDEYLEHSLTLKKGADKKTKSFNEPRLCIRKFFPKRKCFIFDRPAQRKQLSKLETLREEELCGEFVEQVAEFTSYILSYSSVKTLCGGIIVNGPRLKSLVQTYVGAISNGSLPCMESAVLTLAQIENSAAVQKAITHYEEQMNQKIQMPTETLQELLDLHRPIESEAIEVFLKNSFKDVDQKFQTELGNLLVAKRDAFIKKNMDVSSARCSDLLEDIFGPLEEEVKLGTFSKPGGYYLFLQMRQELEKKYNQAPGKGLQAEAMLKNYFDSKADVVETLLQTDQSLTEAAKEVEEERTKAEAAEAANRELEKKQKEFELMMQQKEKSYQEHVKKLTEKMKDEQKQLLAEQENIIAAKLREQEKFLKEGFENESKKLIREIDTLKQNKSSGKCTIL

binding [4]: binds
B4: recombinant Myc-Gbp2 (protein, UniProt Q9Z0E6 1-589)
chain: B3 chain

binding [3]: no binding
B5: Gbp3 (co-IP of Fig. 1F) (protein, UniProt Q61107 1-620)
chain: MEAPICLVENWKNQLTVNLEAIRILEQIAQPLVVVAIVGLYRTGKSYLMNRLAGRNHGFSLGSTVQSETKGIWMWCVPHPTKPTHTLVLLDTEGLGDVEKGDPKNDSWIFALAVLLSSTFVYNSMSTINQQALEQLHFVTELTQLIRAKSSPREDKVKDSSEFVGFFPDFIWAVRDFALELKLNGRPITEDEYLENALKLIQGDNLKVQQSNMTRECIRYFFPVRKCFVFDRPTSDKRLLLQIENVPENQLERNFQVESEKFCSYIFTNGKTKTLRGGVIVTGNRLGTLVQTYVNAINSGTVPCLENAVTTLAQRENSIAVQKAADHYSEQMAQRMRLPTDTLQELLTVHAACEKEAIAVFMEHSFKDDEQEFQKKLVVTIEERKEEFIRQNEAASIRHCQAELERLSESLRKSISCGAFSVPGGHSLYLEARKKIELGYQQVLRKGVKAKEVLKSFLQSQAIMEDSILQSDKALTDGERAIAAERTKKEVAEKELELLRQRQKEQEQVMEAQERSFRENIAKLQEKMESEKEMLLREQEKMLEHKLKVQEELLIEGFREKSDMLKNEISHLREEMERTRRKPSLFGQILDTIGNAFIMILPGAGKLFGVGLKFLGSLSS

binding (Gsdmd-N-GFP (mouse) [5]): no binding
binding (Gsdmd-N-GFP (mouse) [6]): no binding
B6: RFP-Gbp3^S46N (protein, UniProt Q61107 1-620)
chain: B5 chain with S46N

binding (HA-Gsdmd C-term (mouse)): no binding
B7: Myc-Flag-Gbp3 (protein, UniProt Q61107 1-620)
chain: B5 chain

binding (Gsdmd-N-GFP (mouse) [7]): binds
B8: Gsdmd-N-GFP (domain or fragment, UniProt Q9D8T2 1-248)
chain: T3 sequence
